Values joined by “and” are separate entries in the source; they are usually repeats but may differ in a detail not shown here. Identical values can stand only once.
Experiment: Mosquito weight post feeding and weight progression over 72 h
Type: in vivo, Aedes aegypti
Settings: human blood with 0.1 µg/ml IVM, listed as IVM

CCC(C)C1OC2(CCC1C)CC1CC(CC=C(C)C(OC3CC(OC)C(OC4CC(OC)C(O)C(C)O4)C(C)O3)C(C)C=CC=C3COC4C(O)C(C)=CC(C(=O)O1)C34O)O2 (stereo not shown) [ivermectin]
Mosquito weight (0 h post feeding, Batch 1, individual mosquitoes 1-20, combination plus 5 µg/ml KCZ): 5.017 mg and 3.572 mg and 5.592 mg and 4.669 mg and 4.994 mg and 3.599 mg and 4.392 mg and 4.176 mg and 4.146 mg and 3.330 mg and 4.196 mg and 5.275 mg and 4.179 mg and 4.616 mg and 4.690 mg and 4.171 mg and 4.842 mg and 3.381 mg and 5.195 mg and 4.558 mg
Mosquito weight (0 h post feeding, Batch 2, individual mosquitoes 1-20, combination plus 10 µg/ml RIF): 3.795 mg and 3.369 mg and 4.537 mg and 3.266 mg and 4.565 mg and 3.801 mg and 4.884 mg and 4.193 mg and 4.130 mg and 3.786 mg and 4.215 mg and 3.859 mg and 4.556 mg and 4.141 mg and 3.929 mg and 3.588 mg and 3.968 mg and 3.953 mg and 4.300 mg and 4.181 mg
Mosquito weight (0 h post feeding, Batch 3, individual mosquitoes 1-20, combination plus 10 µg/ml RTV): 4.551 mg and 5.437 mg and 4.711 mg and 3.903 mg and 6.381 mg and 4.462 mg and 5.720 mg and 5.295 mg and 4.498 mg and 4.376 mg and 5.186 mg and 3.766 mg and 4.386 mg and 5.523 mg and 4.450 mg and 4.273 mg and 4.241 mg and 4.811 mg and 4.742 mg and 4.802 mg
Mosquito weight (0 h post feeding, Batch 4, individual mosquitoes 1-20, combination plus 10 µg/ml PBO): 5.413 mg and 4.224 mg and 4.850 mg and 4.608 mg and 5.380 mg and 5.368 mg and 5.323 mg and 5.167 mg and 5.135 mg and 4.140 mg and 5.384 mg and 3.932 mg and 4.181 mg and 5.632 mg and 5.651 mg and 5.358 mg and 4.438 mg and 5.265 mg and 4.979 mg and 5.544 mg
Mosquito weight (6 h post feeding, Batch 1, individual mosquitoes 1-20, combination plus 5 µg/ml KCZ): 3.283 mg and 3.751 mg and 3.701 mg and 3.169 mg and 3.746 mg and 3.251 mg and 3.385 mg and 3.427 mg and 3.568 mg and 4.108 mg and 3.104 mg and 3.912 mg and 3.526 mg and 3.566 mg and 3.559 mg and 3.495 mg and 2.992 mg and 3.969 mg and 4.038 mg and 3.449 mg
Mosquito weight (6 h post feeding, Batch 2, individual mosquitoes 1-20, combination plus 10 µg/ml RIF): 3.212 mg and 3.802 mg and 3.205 mg and 3.664 mg and 3.074 mg and 3.056 mg and 3.158 mg and 3.511 mg and 3.089 mg and 3.412 mg and 3.963 mg and 3.328 mg and 3.169 mg and 2.830 mg and 3.319 mg and 3.192 mg and 3.394 mg and 3.421 mg and 3.071 mg and 3.266 mg
Mosquito weight (6 h post feeding, Batch 3, individual mosquitoes 1-20, combination plus 10 µg/ml RTV): 4.325 mg and 4.026 mg and 3.722 mg and 4.153 mg and 3.963 mg and 3.845 mg and 3.946 mg and 3.718 mg and 3.658 mg and 3.841 mg and 4.400 mg and 4.374 mg and 4.517 mg and 4.258 mg and 3.745 mg (2×) and 3.857 mg and 3.805 mg and 4.274 mg and 4.475 mg
Mosquito weight (6 h post feeding, Batch 4, individual mosquitoes 1-20, combination plus 10 µg/ml PBO): 4.158 mg and 4.242 mg and 4.596 mg and 4.339 mg and 3.824 mg and 4.143 mg and 4.505 mg and 3.991 mg and 3.450 mg and 3.822 mg and 3.528 mg and 3.945 mg and 3.735 mg and 4.634 mg and 4.475 mg and 3.883 mg and 3.983 mg and 4.177 mg and 3.869 mg and 4.031 mg
Mosquito weight (12 h post feeding, Batch 1, individual mosquitoes 1-20, combination plus 5 µg/ml KCZ): 3.447 mg and 3.000 mg and 3.477 mg and 3.260 mg and 3.698 mg and 3.473 mg (2×) and 3.102 mg and 2.871 mg and 2.836 mg and 3.011 mg and 2.308 mg and 3.090 mg and 3.509 mg and 3.483 mg and 3.417 mg and 2.956 mg and 3.332 mg and 3.578 mg and 2.936 mg
Mosquito weight (12 h post feeding, Batch 2, individual mosquitoes 1-20, combination plus 10 µg/ml RIF): 3.277 mg and 2.842 mg and 3.328 mg and 3.585 mg and 2.881 mg and 3.243 mg and 2.960 mg and 3.225 mg and 3.026 mg and 2.879 mg and 3.170 mg and 2.829 mg and 3.447 mg and 3.080 mg and 3.107 mg and 2.899 mg and 3.479 mg and 3.127 mg and 2.730 mg and 3.229 mg
Mosquito weight (12 h post feeding, Batch 3, individual mosquitoes 1-20, combination plus 10 µg/ml RTV): 3.563 mg and 4.087 mg and 3.545 mg and 3.859 mg and 4.347 mg and 4.407 mg and 4.094 mg and 3.777 mg and 3.798 mg and 5.418 mg and 4.019 mg and 3.912 mg and 3.891 mg and 4.477 mg and 3.923 mg and 3.825 mg and 4.202 mg and 4.851 mg and 4.304 mg and 3.595 mg
Mosquito weight (12 h post feeding, Batch 4, individual mosquitoes 1-20, combination plus 10 µg/ml PBO): 3.934 mg and 3.493 mg and 3.369 mg and 4.284 mg and 3.685 mg and 3.886 mg and 4.278 mg (2×) and 3.434 mg and 3.366 mg and 3.279 mg and 3.140 mg and 3.075 mg and 3.415 mg and 3.926 mg and 3.889 mg and 3.833 mg and 3.924 mg and 3.650 mg and 3.462 mg
Mosquito weight (24 h post feeding, Batch 1, individual mosquitoes 1-20, combination plus 5 µg/ml KCZ): 3.282 mg and 2.786 mg and 2.846 mg and 2.865 mg and 2.526 mg and 3.744 mg and 2.799 mg and 2.735 mg and 2.860 mg and 3.283 mg and 2.793 mg and 3.361 mg and 2.771 mg and 3.164 mg and 2.701 mg and 3.254 mg and 3.573 mg and 3.084 mg and 2.796 mg and 3.062 mg
Mosquito weight (24 h post feeding, Batch 2, individual mosquitoes 1-20, combination plus 10 µg/ml RIF): 2.275 mg and 2.839 mg and 2.001 mg and 2.013 mg and 2.497 mg and 2.622 mg and 2.465 mg and 2.533 mg and 3.122 mg and 2.471 mg and 2.221 mg and 2.556 mg and 2.757 mg and 3.077 mg and 2.536 mg and 3.017 mg and 2.478 mg and 3.120 mg and 2.508 mg and 3.070 mg
Mosquito weight (24 h post feeding, Batch 3, individual mosquitoes 1-20, combination plus 10 µg/ml RTV): 3.703 mg and 3.598 mg and 3.206 mg and 3.327 mg and 3.405 mg and 3.440 mg and 3.847 mg and 3.373 mg and 3.715 mg and 3.082 mg and 3.324 mg and 3.087 mg and 2.609 mg and 3.466 mg and 3.868 mg and 3.334 mg and 3.632 mg and 3.622 mg and 3.155 mg and 2.996 mg
Mosquito weight (24 h post feeding, Batch 4, individual mosquitoes 1-20, combination plus 10 µg/ml PBO): 3.685 mg and 3.161 mg and 3.647 mg and 3.037 mg and 2.995 mg and 3.398 mg and 3.359 mg and 3.091 mg and 2.877 mg and 3.249 mg and 3.472 mg and 2.594 mg and 3.437 mg and 3.456 mg and 3.489 mg and 3.115 mg and 3.328 mg and 3.360 mg and 3.885 mg and 3.481 mg
Mosquito weight (36 h post feeding, Batch 1, individual mosquitoes 1-20, combination plus 5 µg/ml KCZ): 3.104 mg and 2.768 mg and 2.628 mg and 2.840 mg and 2.190 mg and 1.937 mg and 1.796 mg and 2.865 mg and 2.386 mg and 2.294 mg and 2.476 mg and 2.320 mg and 3.075 mg and 3.173 mg and 3.117 mg and 3.032 mg and 2.329 mg and 3.159 mg and 2.464 mg and 2.675 mg
Mosquito weight (36 h post feeding, Batch 2, individual mosquitoes 1-20, combination plus 10 µg/ml RIF): 2.427 mg and 2.226 mg and 2.546 mg and 2.167 mg and 2.993 mg and 2.255 mg (2×) and 2.535 mg and 2.513 mg and 2.584 mg and 2.209 mg and 2.984 mg and 1.920 mg and 2.953 mg and 3.048 mg and 2.244 mg and 2.075 mg and 2.561 mg and 2.135 mg and 2.442 mg
Mosquito weight (36 h post feeding, Batch 3, individual mosquitoes 1-20, combination plus 10 µg/ml RTV): 2.701 mg and 2.714 mg and 2.133 mg and 3.433 mg and 2.806 mg and 2.871 mg and 2.840 mg and 3.278 mg and 2.790 mg and 3.064 mg and 2.541 mg and 3.067 mg and 2.841 mg and 2.808 mg and 2.780 mg and 3.117 mg and 2.904 mg and 3.255 mg and 2.920 mg and 2.619 mg
Mosquito weight (36 h post feeding, Batch 4, individual mosquitoes 1-20, combination plus 10 µg/ml PBO): 2.887 mg and 2.811 mg and 3.148 mg and 2.888 mg and 2.744 mg and 2.818 mg and 3.154 mg and 3.206 mg and 2.920 mg and 3.152 mg and 2.943 mg and 2.451 mg and 3.218 mg and 2.483 mg and 3.742 mg and 3.489 mg and 2.160 mg and 2.834 mg and 2.580 mg and 2.857 mg
Mosquito weight (48 h post feeding, Batch 1, individual mosquitoes 1-20, combination plus 5 µg/ml KCZ): 2.806 mg and 2.727 mg and 2.654 mg and 2.610 mg and 2.308 mg and 2.545 mg and 2.328 mg and 2.255 mg and 2.504 mg and 2.591 mg and 1.970 mg and 1.626 mg and 2.634 mg and 2.605 mg and 2.551 mg and 1.974 mg and 2.753 mg and 3.435 mg and 2.233 mg and 2.736 mg
Mosquito weight (48 h post feeding, Batch 2, individual mosquitoes 1-20, combination plus 10 µg/ml RIF): 2.361 mg and 2.382 mg and 1.923 mg and 2.173 mg and 1.936 mg and 2.122 mg and 1.887 mg and 2.024 mg and 2.031 mg and 2.226 mg and 1.896 mg and 1.894 mg and 1.651 mg and 2.319 mg and 2.068 mg and 2.257 mg and 2.242 mg and 2.260 mg and 1.939 mg and 2.221 mg
Mosquito weight (48 h post feeding, Batch 3, individual mosquitoes 1-20, combination plus 10 µg/ml RTV): 2.830 mg and 2.547 mg and 2.257 mg and 3.123 mg and 2.667 mg and 2.303 mg and 2.397 mg and 2.885 mg and 2.753 mg and 2.222 mg and 2.666 mg and 3.231 mg and 3.254 mg and 2.456 mg and 2.688 mg and 2.726 mg and 2.681 mg and 2.327 mg and 2.478 mg and 2.339 mg
Mosquito weight (48 h post feeding, Batch 4, individual mosquitoes 1-20, combination plus 10 µg/ml PBO): 2.715 mg and 2.519 mg and 2.885 mg and 2.469 mg and 2.720 mg and 2.692 mg and 2.566 mg and 2.406 mg and 2.710 mg and 2.629 mg and 2.809 mg and 2.459 mg and 2.723 mg and 2.899 mg and 2.826 mg and 2.829 mg and 2.606 mg and 2.437 mg and 3.080 mg and 2.132 mg
Mosquito weight (72 h post feeding, Batch 1, individual mosquitoes 1-20, combination plus 5 µg/ml KCZ): 2.286 mg and 1.887 mg and 1.924 mg and 2.516 mg and 2.068 mg and 1.820 mg and 2.085 mg and 1.940 mg and 1.781 mg and 2.375 mg and 1.321 mg and 2.252 mg and 2.339 mg and 2.262 mg and 1.976 mg and 2.513 mg and 2.173 mg and 2.131 mg and 2.087 mg and 1.851 mg
Mosquito weight (72 h post feeding, Batch 2, individual mosquitoes 1-20, combination plus 10 µg/ml RIF): 1.769 mg and 2.064 mg and 1.565 mg and 2.426 mg and 1.822 mg and 1.804 mg and 1.800 mg and 2.334 mg and 2.200 mg and 1.817 mg and 2.107 mg and 1.642 mg and 1.435 mg and 1.962 mg and 1.981 mg and 2.100 mg and 1.920 mg and 2.177 mg and 1.622 mg and 1.745 mg
Mosquito weight (72 h post feeding, Batch 3, individual mosquitoes 1-20, combination plus 10 µg/ml RTV): 1.614 mg and 1.875 mg and 2.037 mg and 2.180 mg and 2.119 mg and 2.448 mg and 2.545 mg and 2.406 mg and 2.032 mg and 2.236 mg and 2.670 mg and 2.309 mg and 2.019 mg and 2.606 mg and 2.328 mg and 2.378 mg and 2.001 mg and 1.955 mg and 1.741 mg and 2.293 mg
Mosquito weight (72 h post feeding, Batch 4, individual mosquitoes 1-20, combination plus 10 µg/ml PBO): 2.320 mg and 2.115 mg and 2.498 mg and 2.186 mg and 2.043 mg and 1.969 mg and 2.137 mg and 2.339 mg and 2.449 mg and 2.338 mg and 2.454 mg and 2.078 mg and 2.330 mg and 2.255 mg and 2.399 mg and 2.095 mg and 2.634 mg and 2.531 mg and 2.159 mg and 1.991 mg
